Measurements: the supplement of paper PMC10338343
± gives the standard deviation. Only a part is listed here, and it is no random draw. Many of these values have a large error.

Each sequence was assayed on MIWI (PIWIL1) piRISC loaded with piRNA #1 (30 nt) (assay: pre-steady-state target cleavage rate (min^-1); MIWI and MILI are mouse PIWI proteins and EfPiwi is from a freshwater sponge; tags in brackets are library labels; higher = faster piRNA-guided slicing of the target). Conditions: guide: piRNA #1 5'p-UGAGGUAGUAGGUUGUAUAGUAUCCAGAGG; auxiliary factor: 500 nM mouse GTSF1.
How it was run: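 The method was Cleave-'n-Seq, in which uncleaved targets from a transcribed, DNA-blocked target RNA library were sequenced after exposure to active affinity-purified piRISC carrying one synthetic guide, with or without GTSF1 partner protein. Reactions contained 0.1 nM library, 1 nM piRISC and, where present, 500 nM GTSF1 in HEPES–potassium acetate buffer at 33 °C for 0–8 or 0–960 min. Reads were normalised to depth and to weakly complementary targets, three trials were pooled, and k3 was capped at 0.0001 min^-1. The pre-steady-state cleavage rate came from a burst-and-steady-state fit.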
For UCUCUGGAUACUAUACAACCUACUACCUCA, the “pre-steady-state target cleavage rate” value was 2.04 ± 0.1. GGAGACCUAUGAUAUCAACCUACUACUCA was tested, and the “pre-steady-state target cleavage rate” value was 0.000149 ± 0.015. With GGUCAUGGAUACUAUACAACCUACUACCUCA the “pre-steady-state target cleavage rate” value was 1.85 ± 0.11. With CCCUCUGGAUACUAUACAACCUACUACCUCA the “pre-steady-state target cleavage rate” value was 2.25 ± 0.12. With GGAGAGGAUACUAUACAACCUACACCUCA the “pre-steady-state target cleavage rate” value was 0.00119 ± 0.0063. GGACAGGAUACUAAACAACCUACUACCUCA was tested, and the “pre-steady-state target cleavage rate” value was 1.64 ± 0.11. CCUCACGAUACUAUACAACCUACUACCUCA was tested, and the “pre-steady-state target cleavage rate” value was 2.1 ± 0.12. In the case of GGAGACCUAUGAUAUGUUGGUUCUACGUCA, the “pre-steady-state target cleavage rate” value is reported as 0.000459 ± 0.01. With GGAGACCUAUGAUUACAACCUACUGACCUCA the “pre-steady-state target cleavage rate” value was 0.00135 ± 0.0045. With GGAGACCUAUGAAUACUUCCUACUACCUCA the “pre-steady-state target cleavage rate” value was 0.000398 ± 0.0059. In the case of GGAGACCUAUGUAUCAACCUACUACCUCA, the “pre-steady-state target cleavage rate” value is reported as 0.00173 ± 0.0024. GGAGACCUUACUAUACAACCAUACUACCUCA was tested, and the “pre-steady-state target cleavage rate” value was 0.00061 ± 0.0088. With GGAGACCUAACUAUACACACCUACUACCUCA the “pre-steady-state target cleavage rate” value was 0.000187 ± 0.023. With GGUCUGCAUACUAUACAACCUACUACCUGA the “pre-steady-state target cleavage rate” value was 0.677 ± 0.13. With CCUUGGAUACUAUACAACCUACUACCUCA the “pre-steady-state target cleavage rate” value was 2.26 ± 0.14. With GGUCUGGAUACUAUACAACCUAGUACCACA the “pre-steady-state target cleavage rate” value was 0.0022 ± 0.0028. CCUUUGGAUACUAUACAACCUACUACCUCA was tested, and the “pre-steady-state target cleavage rate” value was 2.3 ± 0.12. With GGAGACCUAUGUAUAGAUCCUACUACCUCA the “pre-steady-state target cleavage rate” value was 0.00119 ± 0.0038. In the case of GGAGACCUAUGAAUACAACCUACUACCGUCA, the “pre-steady-state target cleavage rate” value is reported as 0.00189 ± 0.0032. In the case of GGAGACCUAUGUAUACAUCGUACUACCUCA, the “pre-steady-state target cleavage rate” value is reported as 0.00183 ± 0.0047. In the case of GGAGACCAUACUAUACAACCUAUACCUCA, the “pre-steady-state target cleavage rate” value is reported as 0.00163 ± 0.0044. With “GGAGACCUAUGAUUACAACCUACUACCUCA [g2:g17:cont:t1A]” the “pre-steady-state target cleavage rate” value was 0.00172 ± 0.0055. With GGUUGGAUACUAUACAACCUACUACCUCA the “pre-steady-state target cleavage rate” value was 1.78 ± 0.1. In the case of GGUCUGGAUACUAUCCAACCUACUACCUCA, the “pre-steady-state target cleavage rate” value is reported as 1.96 ± 0.14.
